Data on one compound can be found in US3998811A, “Optically active 1,4-benzodiazepines and process for the preparation thereof” (CRC Compagnia di Recerca Chimica S.A., priority 1971, dated 1976).

One series relates to mice. Nature of the series: Anticonvulsant effect against maximal electroshock, mice. Type of series: in vivo. The note with it: relative to chlordiazepoxide = 1.00, larger value = less effective. The protocol:
The pharmacalogical activity of the novel compounds of this invention was evaluated by standard methods such as the anticonvulsant effect against pentylene tetrazole shock and maximal and minimal electroshock, muscle relaxing ability, the fighting test, and hypnotic effect. These standard test are described in detail in the literature, for example, in L. O. Randall, C. L. Schenkel, R. F. Banziger, Curr. Ther. Res., Clin. Exp., 590 (1965), and M. I. Gluckman, Curr. Ther. Res., Clin. Exp., 7,721 (1965).
This Example illustrates the pharmacological effectiveness of the compounds of this invention. A number of the compounds of this invention were tested for their pharmacological effect on the CNS by the procedures described above. Also tested were the corresponding racemic mixtures and three commercial tranquillizers:
The results of the tests are shown in Table IV wherein the relative potencies compared with that of chlordiazepoxide which is assigned an activity of 1.00. […] It can also be seen that the pharmaceutically active compounds of this invention compare favorably with some commercially useful tranquillizers and even surpass them in some respects.
A general note: Protection in the maximal electroshock model is a classic sign of anticonvulsant action.

A short description of another series: LD 50 P.O., mice. The note with it: mouse, in vivo, po.

As to `CN1C(=O)CN=C(c2ccccc2)c2cc(Cl)ccc21` [Diazepam, 7-chloro-1,3-dihydro-1-methyl-5-phenyl-2H-1,4-benzodiazepine-2-one], the “Relative potency, anticonvulsant effect, maximal electro shock” value with mice amounted to 5.20. The LD50 in “LD 50 P.O., mice” amounted to 800 mg/kg.

Broadly, the LD50 is the dose expected to kill half of the subjects tested.
